The values below come from PMC5844954.

Amino acid sequences for entries named in this document (tags omitted). A change or cut given only in a name is not applied to a line headed by its entry. Chains listed by the source or under a name are the forms on record and can include a tag or linker. Residues count along the entry.
UniProt Q8TEW0: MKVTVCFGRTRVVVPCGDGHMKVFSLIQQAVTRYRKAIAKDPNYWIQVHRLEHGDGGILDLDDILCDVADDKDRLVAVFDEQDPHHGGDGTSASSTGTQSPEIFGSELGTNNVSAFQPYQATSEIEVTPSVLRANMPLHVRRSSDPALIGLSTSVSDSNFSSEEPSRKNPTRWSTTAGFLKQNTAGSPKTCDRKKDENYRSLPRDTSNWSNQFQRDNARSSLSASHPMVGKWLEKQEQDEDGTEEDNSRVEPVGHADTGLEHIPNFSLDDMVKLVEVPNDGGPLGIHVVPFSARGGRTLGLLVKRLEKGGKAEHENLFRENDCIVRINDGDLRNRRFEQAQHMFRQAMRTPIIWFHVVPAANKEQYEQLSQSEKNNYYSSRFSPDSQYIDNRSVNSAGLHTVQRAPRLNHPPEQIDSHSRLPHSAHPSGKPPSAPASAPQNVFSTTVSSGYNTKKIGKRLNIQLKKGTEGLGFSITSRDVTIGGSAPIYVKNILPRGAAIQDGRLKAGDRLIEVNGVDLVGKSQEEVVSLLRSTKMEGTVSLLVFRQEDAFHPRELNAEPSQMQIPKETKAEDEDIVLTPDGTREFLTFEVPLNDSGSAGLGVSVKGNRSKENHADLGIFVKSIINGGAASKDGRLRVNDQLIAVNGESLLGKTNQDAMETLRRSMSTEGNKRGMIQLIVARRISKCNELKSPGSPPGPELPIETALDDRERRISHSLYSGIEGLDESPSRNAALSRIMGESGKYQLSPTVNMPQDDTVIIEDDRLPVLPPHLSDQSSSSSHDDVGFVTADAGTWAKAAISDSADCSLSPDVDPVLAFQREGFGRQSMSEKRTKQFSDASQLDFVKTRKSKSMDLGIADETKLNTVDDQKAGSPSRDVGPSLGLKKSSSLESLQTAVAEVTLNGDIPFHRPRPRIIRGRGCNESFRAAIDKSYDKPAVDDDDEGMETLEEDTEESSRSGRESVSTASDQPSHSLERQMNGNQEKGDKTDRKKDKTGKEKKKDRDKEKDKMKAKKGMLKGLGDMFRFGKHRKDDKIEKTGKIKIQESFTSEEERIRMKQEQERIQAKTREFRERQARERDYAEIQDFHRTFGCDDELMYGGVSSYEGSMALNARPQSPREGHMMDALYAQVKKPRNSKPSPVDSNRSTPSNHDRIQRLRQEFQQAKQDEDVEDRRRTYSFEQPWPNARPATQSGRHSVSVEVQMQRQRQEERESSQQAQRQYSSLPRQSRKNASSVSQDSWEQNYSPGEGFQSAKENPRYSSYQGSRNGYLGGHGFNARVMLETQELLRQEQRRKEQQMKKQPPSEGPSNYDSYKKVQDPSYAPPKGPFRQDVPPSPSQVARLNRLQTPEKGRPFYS
GST-tagged human Par3^PDZ (three PDZ domains, residues 269-685): residues 269-685 of Q8TEW0

For one assay, the target named is human Par3-GFP (human) (UniProt Q8TEW0). Put plainly: co-IP; HEK293T co-transfected with human Insc and Par3, nocodazole 16 h, JS buffer, antibody-conjugated sepharose beads, 2 h at 4 °C (Supplementary Fig. 5).
Assay [1] addresses GST-tagged human Par3^PDZ (three PDZ domains, residues 269-685) (human) (UniProt Q8TEW0). Nature of the assay: pull-down; GST-tagged Par3^PDZ (2 μM) incubated with HEK293T lysates expressing Insc constructs, 2 h at 4 °C, JS buffer; only the target purified.
Assay [2] has as its target T1, human LGN of the Insc:LGN:Gαi complex (human) (UniProt P81274).
T1 sequence: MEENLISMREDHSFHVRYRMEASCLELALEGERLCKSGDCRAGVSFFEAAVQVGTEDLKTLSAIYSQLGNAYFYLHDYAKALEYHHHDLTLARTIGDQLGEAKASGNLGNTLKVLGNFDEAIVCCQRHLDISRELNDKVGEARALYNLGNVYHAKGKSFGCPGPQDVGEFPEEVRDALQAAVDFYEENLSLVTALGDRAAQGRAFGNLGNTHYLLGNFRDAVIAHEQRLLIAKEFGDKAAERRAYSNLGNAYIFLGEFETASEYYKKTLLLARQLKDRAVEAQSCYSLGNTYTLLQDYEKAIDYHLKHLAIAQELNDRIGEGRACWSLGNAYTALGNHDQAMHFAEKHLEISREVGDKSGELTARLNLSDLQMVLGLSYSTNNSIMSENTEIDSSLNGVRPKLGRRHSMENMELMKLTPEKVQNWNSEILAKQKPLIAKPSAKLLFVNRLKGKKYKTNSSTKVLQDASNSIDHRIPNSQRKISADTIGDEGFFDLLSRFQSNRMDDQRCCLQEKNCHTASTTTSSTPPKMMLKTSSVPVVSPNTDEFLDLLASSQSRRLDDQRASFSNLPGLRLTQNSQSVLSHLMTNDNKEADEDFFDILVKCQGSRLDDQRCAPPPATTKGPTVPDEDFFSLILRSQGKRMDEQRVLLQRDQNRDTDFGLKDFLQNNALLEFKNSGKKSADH
Put plainly: SEC; Par3^PDZ123 mixed in molar excess with purified Insc:LGN:Gαi, SDS-PAGE of fractions; both purified. In general terms: Size exclusion chromatography separates by hydrodynamic size, large species first.

Assay [3] concerns the target T2, Drosophila LGN (Pins) TPR domain, residues 25-406 (Drosophila) (UniProt Q9VB22).
T2 sequence: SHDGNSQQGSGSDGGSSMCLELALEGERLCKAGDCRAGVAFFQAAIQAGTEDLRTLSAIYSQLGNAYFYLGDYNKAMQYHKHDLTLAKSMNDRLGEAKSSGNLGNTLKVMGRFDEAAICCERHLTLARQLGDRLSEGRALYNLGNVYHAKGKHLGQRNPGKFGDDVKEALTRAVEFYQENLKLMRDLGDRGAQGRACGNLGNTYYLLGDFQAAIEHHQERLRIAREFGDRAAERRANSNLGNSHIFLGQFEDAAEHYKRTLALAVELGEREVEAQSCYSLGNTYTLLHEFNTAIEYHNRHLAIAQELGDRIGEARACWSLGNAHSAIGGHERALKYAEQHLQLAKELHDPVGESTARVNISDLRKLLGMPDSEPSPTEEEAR
Put plainly: SEC-SAXS; 100 μl of complex at 20 mg/ml on Superdex-200 10/30 Increase, ESRF BM29; both purified.

Assay [4] addresses T2, Drosophila LGN (Pins) TPR domain, residues 25-406 (Drosophila). Nature of the assay: crystal structure; dLGN 25-406:Insc 283-623 complex, 3.4 Å, space group P212121, four tetramers in the asymmetric unit; both purified.

No constants are given. Whether binding was seen depends on the method and setting. For some assays here: Binding seen in cells or lysates may run through a third protein. Some entries that bind do so weakly or less than the wild type. For some assays here: Where a sequence is shown, tags or fusion partners need not be part of it.

B1: human Insc (residues 1-532) with an N-terminal HA-tag (protein, UniProt Q1MX18-2 1-532)
chain: MMALPGGRHLDSVTLPGQRLHLMQVDSVQRWMEDLKLMTECECMCVLQAKPISLEEDAQGDLILAGGPGPGDPLQLLLKRGWVISTELRRIGQKLAQDRWARVHSMSVRLTCHARSMVSEYSAVSRNSLKEMGEIEKLLMEKCSELSAVTERCLQVENEHVLKSMKACVSETLSMLGQHFGQLLELALTREVQALVRKIDASDNIYTTESTTGNLFSLTQEGAPLCRIIAKEGGVVALFKVCRQDSFRCLYPQALRTLASICCVEEGVHQLEKVDGVLCLADILTDNSHSEATRAEAAAVVAQVTSPHLPVTQHLSSFLESMEEIVTALVKLCQEASSGEVFLLASAALANITFFDTMACEMLLQLNAIRVLLEACSDKQRVDTPYTRDQIVTILANMSVLEQCASDIIQENGVQLIMGMLSEKPRSGTPAEVAACERVQQKAAVTLARLSRDPDVAREAVRLSCMSRLIELCRSPSERNSSDAVLVACLAALRRLAGVCPEGLQDSDFQQLVQPRLVDSFLLCSNMEESFV
Turning to B1, the binding entry (in the assay with human Par3-GFP (human); in assay [1]) was “binds” each time.

B2: human Insc of the Insc:LGN:Gαi complex (protein, UniProt Q1MX18-2 1-532)
chain: MMALPGGRHLDSVTLPGQRLHLMQVDSVQRWMEDLKLMTECECMCVLQAKPISLEEDAQGDLILAGGPGPGDPLQLLLKRGWVISTELRRIGQKLAQDRWARVHSMSVRLTCHARSMVSEYSAVSRNSLKEMGEIEKLLMEKCSELSAVTERCLQVENEHVLKSMKACVSETLSMLGQHFGQLLELALTREVQALVRKIDASDNIYTTESTTGNLFSLTQEGAPLCRIIAKEGGVVALFKVCRQDSFRCLYPQALRTLASICCVEEGVHQLEKVDGVLCLADILTDNSHSEATRAEAAAVVAQVTSPHLPVTQHLSSFLESMEEIVTALVKLCQEASSGEVFLLASAALANITFFDTMACEMLLQLNAIRVLLEACSDKQRVDTPYTRDQIVTILANMSVLEQCASDIIQENGVQLIMGMLSEKPRSGTPAEVAACERVQQKAAVTLARLSRDPDVAREAVRLSCMSRLIELCRSPSERNSSDAVLVACLAALRRLAGVCPEGLQDSDFQQLVQPRLVDSFLLCSNMEESFV
As to B2, in assay [2], the binding result is reported as “binds”.

B3: Drosophila Inscuteable asymmetric domain, residues 283-623 (domain or fragment, UniProt Q24367 283-623)
chain: SLRFTASTSTPKSGSKIAKRGKKHPEPVASWMSEQRWAGEPEVMCTLQHKSIAQEAYKNYTITTSAVCKLVRQLQQQALSLQVHFERSERVLSGLQASSLPEALAGATQLLSHLDDFTATLERRGVFFNDAKIERRRYEQHLEQIRTVSKDTRYSLERQHYINLESLLDDVQLLKRHTLITLRLIFERLVRVLVISIEQSQCDLLLRANINMVATLMNIDYDGFRSLSDAFVQNEAVRTLLVVVLDHKQSSVRALALRALATLCCAPQAINQLGSCGGIEIVRDILQVESAGERGAIERREAVSLLAQITAAWHGSEHRVPGLRDCAESLVAGLAALLQPE
With B3, the binding result in assay [3] and in assay [4] was “binds” in each case.
